At least one peptide structure holds a part that was inferred or is arguable (an end, a ring closure or a residue). Positions of bridges follow the written chain, without caps; N, C: chain ends. Residues, ends and D or L forms follow the SMILES beside them. Groups on a side chain read outwards from the residue. Chains are numbered I, II in the order given.
Legend:
[1] = system: several Drug resistant pathogens; test: MIC values of G3KL against several Drug resistant pathogens (Table 28); assay type: cell-based
B. subtilis BR151 = test: Preliminary resistant development assay (daily MIC for 15 days); assay type: cell-based, Bacillus subtilis; details: bacteria from 1/2 MIC well re-tested daily
Protocol: MICs of compounds for B. subtilis BR151 were determined daily for 15 days using cells from the well in which the compound concentration was one-half the MIC value (½ MIC well). […] The re-suspension was then diluted to 5×10^5 cells/ml in LB Broth (OD600=0.1 then diluted 1:100 fold to get OD600=0.001) and used to again determine the MIC of the same compound to which those cells had previously been exposed. All MIC determinations were done in duplicate.
For an initial estimation of how fast resistances could arise with AMPDs the MIC was repeated for 15 days in a row and determined each day. After obtaining the MIC value in usual broth dilution assay the bacteria (B. subtilis) from the ½ MIC well were incubated for 2-5 hours and the dilution assay was repeated. This procedure was realized for 15 days and the MICs of each day compared. In case of an increase of the MIC, it is indicative for a resistance against the AMPDs.

[2] = Acinetobacter baumannii 2172421, OXA-23
[3] = Acinetobacter baumannii complex 2203591
[4] = Acinetobacter baumannii complex 2266064, CarbaR unknown mechanism
[5] = Acinetobacter baumannii complex 2303905
[6] = Acinetobacter baumannii complex 2310515
[7] = Acinetobacter baumannii complex 2310924
[8] = Acinetobacter baumannii complex 2318355, CarbaR unknown mechanism
[9] = Acinetobacter baumannii complex 2321336, CarbaR unknown mechanism
[10] = Acinetobacter baumannii complex 2327362
[11] = Citrobacter freundii 804135 n4, NDM, OXA-48, CTX-M-15
[12] = Citrobacter koseri LA12095039, CTX-M-15, CMY-4, TEM-1-like
[13] = Citrobacter koseri LA12095041, CTX-M-15, CMY-4, TEM-1-like
[14] = Enterobacter cloacae 2218820, NDM, TEM-type
[15] = Escherichia coli 2266358 II, OXA-48, CTX-M-1
[16] = Klebsiella oxytoca 2262461, CTX-M-15-like
[17] = Klebsiella pneumoniae 2081507, NDM CTX-M-Gr1, SHV-type
[18] = Klebsiella pneumoniae 2218825, NDM
[19] = Klebsiella pneumoniae 2218827, NDM
[20] = Pseudomonas aeruginosa 2256279, CarbaR unknown mechanism
[21] = Pseudomonas aeruginosa 2267476, CarbaR unknown mechanism
[22] = Pseudomonas aeruginosa 2280037, CarbaR unknown mechanism
[23] = Pseudomonas aeruginosa Cleaveland, VIM-1
[24] = Salmonela Kentucky 2198242, OXA-48, VEB-8

For `CC(C)C[C@H](NC(=O)[C@H](CCCCN)NC(=O)[C@H](CCCCNC(=O)[C@H](CC(C)C)NC(=O)[C@H](CCCCN)NC(=O)[C@H](CCCCNC(=O)[C@H](CC(C)C)NC(=O)[C@H](CCCCN)NC(=O)[C@H](CCCCNC(=O)[C@H](CC(C)C)NC(=O)[C@@H](N)CCCCN)NC(=O)[C@H](CC(C)C)NC(=O)[C@@H](N)CCCCN)NC(=O)[C@H](CC(C)C)NC(=O)[C@H](CCCCN)NC(=O)[C@H](CCCCNC(=O)[C@H](CC(C)C)NC(=O)[C@@H](N)CCCCN)NC(=O)[C@H](CC(C)C)NC(=O)[C@@H](N)CCCCN)NC(=O)[C@H](CC(C)C)NC(=O)[C@H](CCCCN)NC(=O)[C@H](CCCCNC(=O)[C@H](CC(C)C)NC(=O)[C@H](CCCCN)NC(=O)[C@H](CCCCNC(=O)[C@H](CC(C)C)NC(=O)[C@@H](N)CCCCN)NC(=O)[C@H](CC(C)C)NC(=O)[C@@H](N)CCCCN)NC(=O)[C@H](CC(C)C)NC(=O)[C@H](CCCCN)NC(=O)[C@H](CCCCNC(=O)[C@H](CC(C)C)NC(=O)[C@@H](N)CCCCN)NC(=O)[C@H](CC(C)C)NC(=O)[C@@H](N)CCCCN)C(N)=O` [MSt-112, (KL)8(KKL)4(KKL)2(KKL)] (I: H-KLK([Leu-Lys])KLKKLKKL-NH2 / II: H-KLK([Leu-Lys])KLKKL / III: H-KLK([Leu-Lys])KL / IV: H-KLK([Leu-Lys])KL; amide I:6-IV:C, I:9-II:C, II:6-III:C), the MBC [1, 2] was 8, the MIC [1, 2] was 8 and the MBC [1, 3] was 8. The MIC [1, 3] was 4, the MBC [1, 4] was 8 and the MIC [1, 4] was 8. It also gave an MBC [1, 5] of 4, an MIC [1, 5] of 4 and an MBC [1, 6] of 8. The MIC [1, 6] was 8, the MBC [1, 7] was 8 and the MIC [1, 7] was 8. It also gave an MBC [1, 8] of 16, an MIC [1, 8] of 16 and an MBC [1, 9] of 4. The MIC [1, 9] was 4, the MBC [1, 10] was 4 and the MIC [1, 10] was 4. It also gave an MBC [1, 11] of 4, an MIC [1, 11] of 4 and an MBC [1, 12] of 8. The MIC [1, 12] was 8, the MBC [1, 13] was 4 and the MIC [1, 13] was 4. The MBC ([1]; Enterobacter aerogenes 2218828) was 32, the MIC ([1]; Enterobacter aerogenes 2218828) was 32 and the MBC [1, 14] was 8. The MIC [1, 14] was 8, the MBC ([1]; Enterobacter cloacae 2262494) was 16 and the MIC ([1]; Enterobacter cloacae 2262494) was 8. The MIC ([1]; Escherichia coli 2058665, NDM) was >32, the MIC ([1]; Escherichia coli 2081272, DHA, Temall) was >32 and the MIC ([1]; Escherichia coli 2113003, CTX-M-Gr1) was >32. For the same molecule, the MIC ([1]; Escherichia coli 2152061, CMY-2, CTX-M-15) was >32, the MBC [1, 15] was 64 and the MIC [1, 15] was 8. The MIC ([1]; Escherichia coli QK8) was >32, the MBC [1, 16] was 8 and the MIC [1, 16] was 8. The MBC [1, 17] was >32, the MIC [1, 17] was 16 and the MIC ([1]; Klebsiella pneumoniae 2218821, KPC) was >64. For the same molecule, the MIC ([1]; Klebsiella pneumoniae 2218822, OXA-48) was >64, the MIC ([1]; Klebsiella pneumoniae 2218823, KPC) was >64 and the MIC ([1]; Klebsiella pneumoniae 2218824, VIM) was >32. It also gave an MBC [1, 18] of 16, an MIC [1, 18] of 16 and an MBC ([1]; Klebsiella pneumoniae 2218826) of 32. The MIC ([1]; Klebsiella pneumoniae 2218826) was 32, the MBC [1, 19] was 32 and the MIC [1, 19] was 16. The MIC ([1]; Klebsiella pneumoniae 2238765, OXA-48, CTX-M-type) was >32, the MIC ([1]; Klebsiella pneumoniae 2247421, NDM, OXA-48) was >32 and the MIC ([1]; Klebsiella pneumoniae 2298819, KPC) was >64. The MIC ([1]; Klebsiella pneumoniae JF5969, DHA) was >64, the MIC ([1]; Klebsiella pneumoniae QK416, KPC) was >32 and the MBC ([1]; Klebsiella pneumoniae QK418) was 8. The MIC ([1]; Klebsiella pneumoniae QK418) was 4, the MIC ([1]; Proteus mirabilis 804133 N6, CMY-2) was >32 and the MIC ([1]; Proteus mirabilis VB1248, VEB-6) was >32. It also gave an MBC [1, 20] of 4, an MIC [1, 20] of 4 and an MBC [1, 21] of 8. The MIC [1, 21] was 4, the MBC [1, 22] was 8 and the MIC [1, 22] was 4. For the same molecule, the MBC ([1]; Pseudomonas aeruginosa 2291604) was 32, the MIC ([1]; Pseudomonas aeruginosa 2291604) was 16 and the MBC ([1]; Pseudomonas aeruginosa 2296294) was 8. The MIC ([1]; Pseudomonas aeruginosa 2296294) was 4, the MBC ([1]; Pseudomonas aeruginosa 2306440) was 8 and the MIC ([1]; Pseudomonas aeruginosa 2306440) was 8. The MBC ([1]; Pseudomonas aeruginosa 2307544) was 4, the MIC ([1]; Pseudomonas aeruginosa 2307544) was 4 and the MBC [1, 23] was 4. For the same molecule, the MIC [1, 23] was 4, the MBC [1, 24] was 8 and the MIC [1, 24] was 8. The “change of MIC over 15 days (resistance)” value (B. subtilis BR151) was “did not have a significant change of their MIC values over 15 days”.

Source: patent publication US10336792B2, “Antimicrobial peptide dendrimers” (priority 2014, dated 2019)
